Results on two molecules are retold here after PMC12273641, “A cryo-electron microscopy structure of yeast Pex5 in complex with a cargo uncovers a novel binding interface” (Journal of Cell Science, 2025).

The target in test [1] is T1, Pex5 (full-length Saccharomyces cerevisiae Pex5, 1-612, His-Sumo fusion cleaved off) (Saccharomyces cerevisiae) (UniProt P35056).
T1 sequence: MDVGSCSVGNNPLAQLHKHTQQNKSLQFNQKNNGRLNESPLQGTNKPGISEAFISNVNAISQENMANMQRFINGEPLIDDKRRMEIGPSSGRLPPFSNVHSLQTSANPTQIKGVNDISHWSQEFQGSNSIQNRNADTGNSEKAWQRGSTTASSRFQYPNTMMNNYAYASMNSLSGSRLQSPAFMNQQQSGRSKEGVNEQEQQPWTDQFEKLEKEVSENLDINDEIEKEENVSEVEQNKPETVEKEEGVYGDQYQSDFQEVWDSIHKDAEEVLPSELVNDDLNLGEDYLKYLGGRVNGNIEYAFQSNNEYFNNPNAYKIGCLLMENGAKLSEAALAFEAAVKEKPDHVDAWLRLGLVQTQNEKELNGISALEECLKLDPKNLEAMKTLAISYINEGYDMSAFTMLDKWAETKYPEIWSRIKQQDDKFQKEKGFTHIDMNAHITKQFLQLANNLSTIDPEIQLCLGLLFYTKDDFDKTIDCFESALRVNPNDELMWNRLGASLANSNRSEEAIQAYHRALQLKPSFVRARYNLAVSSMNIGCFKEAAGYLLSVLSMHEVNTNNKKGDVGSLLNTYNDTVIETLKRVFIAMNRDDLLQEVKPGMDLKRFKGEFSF
The test is described as follows: SPR; Biacore, Pex5 immobilised by amine coupling on two channels of a CM5 chip (450 and 480 RU); Eci1 WT or Eci1ΔPTS1 as analyte, 1.95-500 nM, single-cycle kinetics, 120 s injection, 900 s dissociation, 30 µl/min, 25°C; bivalent analyte model for WT; both purified.

The target of test [2] is T2, His-SUMO-Pex5 (full-length Saccharomyces cerevisiae Pex5, 1-612, uncleaved N-terminal His-Sumo fusion) (Saccharomyces cerevisiae) (UniProt P35056).
T2 sequence: T1 sequence
In words: pull-down; His-tag pull-down on Ni resin from lysates (TBS) of E. coli co-expressing His-SUMO-Pex5 with FLAG-Eci1 WT or ΔPTS1; Pex5 captured, Eci1 detected by anti-FLAG western blot. For orientation: Immunoblotting shows a protein as a band on a membrane.

The target of test [3] is T1, Pex5 (full-length Saccharomyces cerevisiae Pex5, 1-612, His-Sumo fusion cleaved off) (Saccharomyces cerevisiae). The test is described as follows: cryo-EM structure; single-particle cryo-EM of the co-expressed, co-purified Pex5–Eci1 complex (2 mg/ml, in PBS); 2.7 Å global, 2.9 Å local refinement of Pex5 and the interface; both purified.

These are yes or no findings as the source states them, for the method shown. For some of these results: Binding seen in cells or lysates may run through a third protein. Some entries that bind do so weakly or less than the wild type. Where a sequence is shown, tags or fusion partners need not be part of it.

B1: FLAG-Eci1ΔPTS1 (Saccharomyces cerevisiae Eci1 lacking the last three amino acids 278HRL280) (domain or fragment, UniProt Q05871 1-277)
chain: MSQEIRQNEKISYRIEGPFFIIHLMNPDNLNALEGEDYIYLGELLELADRNRDVYFTIIQSSGRFFSSGADFKGIAKAQGDDTNKYPSETSKWVSNFVARNVYVTDAFIKHSKVLICCLNGPAIGLSAALVALCDIVYSINDKVYLLYPFANLGLITEGGTTVSLPLKFGTNTTYECLMFNKPFKYDIMCENGFISKNFNMPSSNAEAFNAKVLEELREKVKGLYLPSCLGMKKLLKSNHIDAFNKANSVEVNESLKYWVDGEPLKRFRQLGSKQRK
As to B1, the binding result is given as “binds weakly” in test [1] and “binds” in test [2].

B2: FLAG-Eci1 wild type (Saccharomyces cerevisiae Δ3,Δ2-enoyl-CoA isomerase 1) (natural protein, UniProt Q05871 1-280, looked up)
chain: MSQEIRQNEKISYRIEGPFFIIHLMNPDNLNALEGEDYIYLGELLELADRNRDVYFTIIQSSGRFFSSGADFKGIAKAQGDDTNKYPSETSKWVSNFVARNVYVTDAFIKHSKVLICCLNGPAIGLSAALVALCDIVYSINDKVYLLYPFANLGLITEGGTTVSLPLKFGTNTTYECLMFNKPFKYDIMCENGFISKNFNMPSSNAEAFNAKVLEELREKVKGLYLPSCLGMKKLLKSNHIDAFNKANSVEVNESLKYWVDGEPLKRFRQLGSKQRKHRL
notes: Eci1 (Δ3,Δ2-enoyl-CoA isomerase 1), Saccharomyces cerevisiae, wild type, M1-L280, ends in the PTS1 tripeptide 278HRL280; cloned into the first open reading frame of pACYCDuet-1; A TEV cleavage site follows the N-terminal FLAG tag; no TEV cleavage is described; Hexamer by cryo-EM; also called Eci1 WT; Eci1 (WT); source: E. coli BL21(DE3): co-expressed with Pex5, in lysate (pull-down); purified …
With B2, the binding entry in test [3] and in test [2] was “binds” in each case.
